Earlier results in patent publication US20060083786A1, “Taste masking pharmaceutical composition containing levocetirizine” (Glenmark Pharmaceuticals Limited, priority 2004, published 2006).

By UniProt entry, the sequences of proteins in these tests, tags left out.
UniProt P35367, whole entry: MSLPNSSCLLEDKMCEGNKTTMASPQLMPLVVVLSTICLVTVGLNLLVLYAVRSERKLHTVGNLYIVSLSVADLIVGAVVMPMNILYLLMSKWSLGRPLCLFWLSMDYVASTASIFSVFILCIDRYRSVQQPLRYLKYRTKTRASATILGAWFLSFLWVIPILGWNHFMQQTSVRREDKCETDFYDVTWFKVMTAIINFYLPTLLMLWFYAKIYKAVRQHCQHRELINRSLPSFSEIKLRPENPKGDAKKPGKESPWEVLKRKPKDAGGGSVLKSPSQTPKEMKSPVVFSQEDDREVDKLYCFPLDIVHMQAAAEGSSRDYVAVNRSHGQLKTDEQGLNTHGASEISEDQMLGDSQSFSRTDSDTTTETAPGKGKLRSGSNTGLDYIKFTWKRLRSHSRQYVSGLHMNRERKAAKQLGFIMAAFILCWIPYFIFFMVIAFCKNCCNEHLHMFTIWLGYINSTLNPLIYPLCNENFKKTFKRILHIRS

Experiments:
human H1 receptors = human H1 receptors (Homo sapiens, UniProt P35367); conditions: compared with cetirizine; 'is believed'
[1] = 'is believed'

## O=C(O)COCCN1CCN([C@H](c2ccccc2)c2ccc(Cl)cc2)CC1 [Levocetirizine]
Human H1 receptors
  affinity for human H1 receptors relative to cetirizine: two fold higher
[1]
  absorption: rapidly and extensively absorbed
